Experimental data reported in patent publication US12729225B2, “Non-canonical SWI/SNF complex and uses thereof” (Dana-Farber Cancer Institute, Inc., priority 2018, dated 2026).

B1: RPF2 (protein, UniProt Q9H7B2 1-306, looked up)
Ribosome production factor 2 …: MDTLDRVVKPKTKRAKRFLEKREPKLNENIKNAMLIKGGNANATVTKVLKDVYALKKPYGVLYKKKNITRPFEDQTSLEFFSKKSDCSLFMFGSHNKKRPNNLVIGRMYDYHVLDMIELGIENFVSLKDIKNSKCPEGTKPMLIFAGDDFDVTEDYRRLKSLLIDFFRGPTVSNIRLAGLEYVLHFTALNGKIYFRSYKLLLKKSGCRTPRIELEEMGPSLDLVLRRTHLASDDLYKLSMKMPKALKPKKKKNISHDTFGTTYGRIHMQKQDLSKLQTRKMKGLKKRPAERITEDHEKKSKRIKKN
B2: TRIM28 (protein, UniProt Q13263 2-835, looked up)
Transcription intermediary …: AASAAAASAAAASAASGSPGPGEGSAGGEKRSTAPSAAASASASAAASSPAGGGAEALELLEHCGVCRERLRPEREPRLLPCLHSACSACLGPAAPAAANSSGDGGAAGDGTVVDCPVCKQQCFSKDIVENYFMRDSGSKAATDAQDANQCCTSCEDNAPATSYCVECSEPLCETCVEAHQRVKYTKDHTVRSTGPAKSRDGERTVYCNVHKHEPLVLFCESCDTLTCRDCQLNAHKDHQYQFLEDAVRNQRKLLASLVKRLGDKHATLQKSTKEVRSSIRQVSDVQKRVQVDVKMAILQIMKELNKRGRVLVNDAQKVTEGQQERLERQHWTMTKIQKHQEHILRFASWALESDNNTALLLSKKLIYFQLHRALKMIVDPVEPHGEMKFQWDLNAWTKSAEAFGKIVAERPGTNSTGPAPMAPPRAPGPLSKQGSGSSQPMEVQEGYGFGSGDDPYSSAEPHVSGVKRSRSGEGEVSGLMRKVPRVSLERLDLDLTADSQPPVFKVFPGSTTEDYNLIVIERGAAAAATGQPGTAPAGTPGAPPLAGMAIVKEEETEAAIGAPPTATEGPETKPVLMALAEGPGAEGPRLASPSGSTSSGLEVVAPEGTSAPGGGPGTLDDSATICRVCQKPGDLVMCNQCEFCFHLDCHLPALQDVPGEEWSCSLCHVLPDLKEEDGSLSLDGADSTGVVAKLSPANQRKCERVLLALFCHEPCRPLHQLATDSTFSLDQPGGTLDLTLIRARLQEKLSPPYSSPQEFAQDVGRMFKQFNKLTEDKADVQSIIGLQRFFETRMNEAFGDTKFSAVLVEPPPMSLPGAGLSSQELSGGPGDGP
B3: HNRNPCL3 (protein, UniProt B7ZW38 1-293, looked up)
Heterogeneous nuclear …: MASNVTNKMDPHSMNSRVFIGNLNTLVVKKSDVEAIFSKYGKIAGCSVHKGFAFVQYDKEKNARAAVAGEDGRMIASQVVDINLAAEPKVNRGNAGVKRSAAEMYGSSFDLDYNLQRDYYGGMYSFPARVPPPPPIALAVVPSKRQRISGNTSRRGKSGFNSKSGKRGSSKSGKLKGDDLQAIKQELTQIKQKVDSLLENLEKIEKEHCKQGVEVKNAKSEEEQTSSSSKKDKTHVKMESEGGADDSVEEGDLLCDDDNEDQGDNQLELIKDDEKGAEEGEDDRDRANGQDDS
B4: ECHS1 (protein, UniProt P30084 28-290, looked up)
Enoyl-CoA hydratase, …: ASGANFEYIIAEKRGKNNTVGLIQLNRPKALNALCDGLIDELNQALKTFEEDPAVGAIVLTGGDKAFAAGADIKEMQNLSFQDCYSSKFLKHWDHLTQVKKPVIAAVNGYAFGGGCELAMMCDIIYAGEKAQFAQPEILIGTIPGAGGTQRLTRAVGKSLAMEMVLTGDRISAQDAKQAGLVSKICPVETLVEEAIQCAEKIASNSKIVVAMAKESVNAAFEMTLTEGSKLEKKLFYSTFATDDRKEGMTAFVEKRKANFKDQ
B5: HMGB1P1 (protein, UniProt B2RPK0 1-211, looked up)
High mobility group protein …: MGKGDPKKPRGKMSSYAFFVQTCREEHKKKHSDASVNFSEFSNKCSERWKTMSAKEKGKFEDMAKADKTHYERQMKTYIPPKGETKKKFKDPNAPKRPPSAFFLFCSEYHPKIKGEHPGLSIGDVAKKLGEMWNNTAADDKQPGEKKAAKLKEKYEKDIAAYQAKGKPEAAKKGVVKAEKSKKKKEEEEDEEDEEDEEEEDEEDEEDDDDE
B6: PGRMC2 (protein, UniProt O15173 1-223, looked up)
Membrane-associated …: MAAGDGDVKLGTLGSGSESSNDGGSESPGDAGAAAEGGGWAAAALALLTGGGEMLLNVALVALVLLGAYRLWVRWGRRGLGAGAGAGEESPATSLPRMKKRDFSLEQLRQYDGSRNPRILLAVNGKVFDVTKGSKFYGPAGPYGIFAGRDASRGLATFCLDKDALRDEYDDLSDLNAVQMESVREWEMQFKEKYDYVGRLLKPGEEPSEYTDEEDTKDHNKQD
B7: DNAJC4 (protein, UniProt Q9NNZ3 1-241, looked up)
DnaJ homolog subfamily C …: MPPLLPLRLCRLWPRNPPSRLLGAAAGQRSRPSTYYELLGVHPGASTEEVKRAFFSKSKELHPDRDPGNPSLHSRFVELSEAYRVLSREQSRRSYDDQLRSGSPPKSPRTTVHDKSAHQTHSSWTPPNAQYWSQFHSVRPQGPQLRQQQHKQNKQVLGYCLLLMLAGMGLHYIAFRKVKQMHLNFMDEKDRIITAFYNEARARARANRGILQQERQRLGQRQPPPSEPTQGPEIVPRGAGP
B8: SFXN2 (protein, UniProt Q96NB2 1-322, looked up)
Sideroflexin-2: MEADLSGFNIDAPRWDQRTFLGRVKHFLNITDPRTVFVSERELDWAKVMVEKSRMGVVPPGTQVEQLLYAKKLYDSAFHPDTGEKMNVIGRMSFQLPGGMIITGFMLQFYRTMPAVIFWQWVNQSFNALVNYTNRNAASPTSVRQMALSYFTATTTAVATAVGMNMLTKKAPPLVGRWVPFAAVAAANCVNIPMMRQQELIKGICVKDRNENEIGHSRRAAAIGITQVVISRITMSAPGMILLPVIMERLEKLHFMQKVKVLHAPLQVMLSGCFLIFMVPVACGLFPQKCELPVSYLEPKLQDTIKAKYGELEPYVYFNKGL
B9: POLDIP3 (protein, UniProt Q9BY77 2-421, looked up)
Polymerase delta-interacting …: ADISLDELIRKRGAAAKGRLNARPGVGGVRSRVGIQQGLLSQSTRTATFQQRFDARQKIGLSDARLKLGVKDAREKLLQKDARFRIKGKVQDAREMLNSRKQQTTVPQKPRQVADAREKISLKRSSPAAFINPPIGTVTPALKLTKTIQVPQQKAMAPLHPHPAGMRINVVNNHQAKQNLYDLDEDDDGIASVPTKQMKFAASGGFLHHMAGLSSSKLSMSKALPLTKVVQNDAYTAPALPSSIRTKALTNMSRTLVNKEEPPKELPAAEPVLSPLEGTKMTVNNLHPRVTEEDIVELFCVCGALKRARLVHPGVAEVVFVKKDDAITAYKKYNNRCLDGQPMKCNLHMNGNVITSDQPILLRLSDSPSMKKESELPRRVNSASSSNPPAEVDPDTILKALFKSSGASVTTQPTEFKIKL
B10: ALDH2 (protein, UniProt P05091 18-517, looked up)
Aldehyde dehydrogenase, …: SAAATQAVPAPNQQPEVFCNQIFINNEWHDAVSRKTFPTVNPSTGEVICQVAEGDKEDVDKAVKAARAAFQLGSPWRRMDASHRGRLLNRLADLIERDRTYLAALETLDNGKPYVISYLVDLDMVLKCLRYYAGWADKYHGKTIPIDGDFFSYTRHEPVGVCGQIIPWNFPLLMQAWKLGPALATGNVVVMKVAEQTPLTALYVANLIKEAGFPPGVVNIVPGFGPTAGAAIASHEDVDKVAFTGSTEIGRVIQVAAGSSNLKRVTLELGGKSPNIIMSDADMDWAVEQAHFALFFNQGQCCCAGSRTFVQEDIYDEFVERSVARAKSRVVGNPFDSKTEQGPQVDETQFKKILGYINTGKQEGAKLLCGGGIAADRGYFIQPTVFGDVQDGMTIAKEEIFGPVMQILKFKTIEEVVGRANNSTYGLAAAVFTKDLDKANYLSQALQAGTVWVNCYDVFGAQSPFGGYKMSGSGRELGEYGLQAYTEVKTVTVKVPQKNS
B11: SLC25A24 (protein, UniProt Q6NUK1 1-477, looked up)
Mitochondrial adenyl …: MLRWLRDFVLPTAACQDAEQPTRYETLFQALDRNGDGVVDIGELQEGLRNLGIPLGQDAEEKIFTTGDVNKDGKLDFEEFMKYLKDHEKKMKLAFKSLDKNNDGKIEASEIVQSLQTLGLTISEQQAELILQSIDVDGTMTVDWNEWRDYFLFNPVTDIEEIIRFWKHSTGIDIGDSLTIPDEFTEDEKKSGQWWRQLLAGGIAGAVSRTSTAPLDRLKIMMQVHGSKSDKMNIFGGFRQMVKEGGIRSLWRGNGTNVIKIAPETAVKFWAYEQYKKLLTEEGQKIGTFERFISGSMAGATAQTFIYPMEVMKTRLAVGKTGQYSGIYDCAKKILKHEGLGAFYKGYVPNLLGIIPYAGIDLAVYELLKSYWLDNFAKDSVNPGVMVLLGCGALSSTCGQLASYPLALVRTRMQAQAMLEGSPQLNMVGLFRRIISKEGIPGLYRGITPNFMKVLPAVGISYVVYENMKQTLGVTQK
B12: WDR6 (protein, UniProt Q9NNW5 1-1121, looked up)
tRNA …: MDALEDYVWPRATSELILLPVTGLECVGDRLLAGEGPDVLVYSLDFGGHLRMIKRVQNLLGHYLIHGFRVRPEPNGDLDLEAMVAVFGSKGLRVVKISWGQGHFWELWRSGLWNMSDWIWDARWLEGNIALALGHNSVVLYDPVVGCILQEVPCTDRCTLSSACLIGDAWKELTIVAGAVSNQLLVWYPATALADNKPVAPDRRISGHVGIIFSMSYLESKGLLATASEDRSVRIWKVGDLRVPGGRVQNIGHCFGHSARVWQVKLLENYLISAGEDCVCLVWSHEGEILQAFRGHQGRGIRAIAAHERQAWVITGGDDSGIRLWHLVGRGYRGLGVSALCFKSRSRPGTLKAVTLAGSWRLLAVTDTGALYLYDVEVKCWEQLLEDKHFQSYCLLEAAPGPEGFGLCAMANGEGRVKVVPINTPTAAVDQTLFPGKVHSLSWALRGYEELLLLASGPGGVVACLEISAAPSGKAIFVKERCRYLLPPSKQRWHTCSAFLPPGDFLVCGDRRGSVLLFPSRPGLLKDPGVGGKARAGAGAPVVGSGSSGGGNAFTGLGPVSTLPSLHGKQGVTSVTCHGGYVYTTGRDGAYYQLFVRDGQLQPVLRQKSCRGMNWLAGLRIVPDGSMVILGFHANEFVVWNPRSHEKLHIVNCGGGHRSWAFSDTEAAMAFAYLKDGDVMLYRALGGCTRPHVILREGLHGREITCVKRVGTITLGPEYGVPSFMQPDDLEPGSEGPDLTDIVITCSEDTTVCVLALPTTTGSAHALTAVCNHISSVRAVAVWGIGTPGGPQDPQPGLTAHVVSAGGRAEMHCFSIMVTPDPSTPSRLACHVMHLSSHRLDEYWDRQRNRHRMVKVDPETRYMSLAVCELDQPGLGPLVAAACSDGAVRLFLLQDSGRILQLLAETFHHKRCVLKVHSFTHEAPNQRRRLLLCSAATDGSLAFWDLTTMLDHDSTVLEPPVDPGLPYRLGTPSLTLQAHSCGINSLHTLPTREGHHLVASGSEDGSLHVFVLAVEMLQLEEAVGEAGLVPQLRVLEEYSVPCAHAAHVTGLKILSPSIMVSASIDQRLTFWRLGHGEPTFMNSTVFHVPDVADMDCWPVSPEFGHRCALGGQGLEVYNWYD

Each molecule was assayed on mSWI/SNF complexes (assay: mSWI/SNF complex purification with HA-tagged baits and mass spectrometry (peptide counts)). Details: 293_HA-BRD7 bait purification, mass spectrometry; total peptide count per identified protein.
Set-up: species or system human

Total, 1:
B1, B2, B3, B4, B5, B6, B7, B8, B9, B10, B11, B12

Same assay, conditions: 293_HA-BRD7 bait purification, mass spectrometry; unique peptide count per identified protein

Unique, 1:
B1, B2, B3, B4, B5, B6, B7, B8, B9, B10, B11, B12
